These are yes or no findings as the source states them, for the method shown. Binding seen in cells or lysates may run through a third protein. Some binding calls cover weakened binding; strength is not graded here. For some of these results: Where a sequence is shown, tags or fusion partners need not be part of it.
Legend:
[1] = target: T1, Akirin-V5 (Drosophila melanogaster) (UniProt Q9VS59); test: co-IP; S2 cells transiently transfected with Akirin-V5 and Rel-HA or Bap60-HA plasmids and dsRNA targeting GFP or Hyd; lysate immunoprecipitated with anti-V5 coupled agarose beads; Western blot with anti-HA or anti-V5
T1 sequence: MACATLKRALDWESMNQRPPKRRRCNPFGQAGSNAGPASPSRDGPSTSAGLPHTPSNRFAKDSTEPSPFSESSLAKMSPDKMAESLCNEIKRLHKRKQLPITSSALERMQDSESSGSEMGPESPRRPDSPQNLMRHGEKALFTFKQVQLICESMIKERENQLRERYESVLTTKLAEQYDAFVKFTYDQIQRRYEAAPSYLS

The chains behind the UniProt entries cited, without tags or fusion partners. Where a name states a change or a piece, a line headed by the entry shows the natural chain unless it says otherwise. A line that says so, or that is headed by a name, gives the form on record, which may keep a tag or linker.
UniProt Q9VYG2: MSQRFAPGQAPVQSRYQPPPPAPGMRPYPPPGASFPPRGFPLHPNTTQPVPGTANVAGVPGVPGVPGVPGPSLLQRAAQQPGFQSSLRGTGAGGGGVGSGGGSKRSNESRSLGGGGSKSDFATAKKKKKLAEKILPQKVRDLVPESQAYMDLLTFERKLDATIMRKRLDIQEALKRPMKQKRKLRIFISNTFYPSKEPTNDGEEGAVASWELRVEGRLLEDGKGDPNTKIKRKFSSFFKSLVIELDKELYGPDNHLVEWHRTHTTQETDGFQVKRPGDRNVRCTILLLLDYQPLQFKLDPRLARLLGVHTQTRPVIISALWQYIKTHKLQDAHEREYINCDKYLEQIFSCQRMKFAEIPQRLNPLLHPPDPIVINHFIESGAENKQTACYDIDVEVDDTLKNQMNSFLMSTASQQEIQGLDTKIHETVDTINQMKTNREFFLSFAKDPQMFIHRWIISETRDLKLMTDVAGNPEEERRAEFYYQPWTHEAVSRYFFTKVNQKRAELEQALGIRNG
UniProt P51592: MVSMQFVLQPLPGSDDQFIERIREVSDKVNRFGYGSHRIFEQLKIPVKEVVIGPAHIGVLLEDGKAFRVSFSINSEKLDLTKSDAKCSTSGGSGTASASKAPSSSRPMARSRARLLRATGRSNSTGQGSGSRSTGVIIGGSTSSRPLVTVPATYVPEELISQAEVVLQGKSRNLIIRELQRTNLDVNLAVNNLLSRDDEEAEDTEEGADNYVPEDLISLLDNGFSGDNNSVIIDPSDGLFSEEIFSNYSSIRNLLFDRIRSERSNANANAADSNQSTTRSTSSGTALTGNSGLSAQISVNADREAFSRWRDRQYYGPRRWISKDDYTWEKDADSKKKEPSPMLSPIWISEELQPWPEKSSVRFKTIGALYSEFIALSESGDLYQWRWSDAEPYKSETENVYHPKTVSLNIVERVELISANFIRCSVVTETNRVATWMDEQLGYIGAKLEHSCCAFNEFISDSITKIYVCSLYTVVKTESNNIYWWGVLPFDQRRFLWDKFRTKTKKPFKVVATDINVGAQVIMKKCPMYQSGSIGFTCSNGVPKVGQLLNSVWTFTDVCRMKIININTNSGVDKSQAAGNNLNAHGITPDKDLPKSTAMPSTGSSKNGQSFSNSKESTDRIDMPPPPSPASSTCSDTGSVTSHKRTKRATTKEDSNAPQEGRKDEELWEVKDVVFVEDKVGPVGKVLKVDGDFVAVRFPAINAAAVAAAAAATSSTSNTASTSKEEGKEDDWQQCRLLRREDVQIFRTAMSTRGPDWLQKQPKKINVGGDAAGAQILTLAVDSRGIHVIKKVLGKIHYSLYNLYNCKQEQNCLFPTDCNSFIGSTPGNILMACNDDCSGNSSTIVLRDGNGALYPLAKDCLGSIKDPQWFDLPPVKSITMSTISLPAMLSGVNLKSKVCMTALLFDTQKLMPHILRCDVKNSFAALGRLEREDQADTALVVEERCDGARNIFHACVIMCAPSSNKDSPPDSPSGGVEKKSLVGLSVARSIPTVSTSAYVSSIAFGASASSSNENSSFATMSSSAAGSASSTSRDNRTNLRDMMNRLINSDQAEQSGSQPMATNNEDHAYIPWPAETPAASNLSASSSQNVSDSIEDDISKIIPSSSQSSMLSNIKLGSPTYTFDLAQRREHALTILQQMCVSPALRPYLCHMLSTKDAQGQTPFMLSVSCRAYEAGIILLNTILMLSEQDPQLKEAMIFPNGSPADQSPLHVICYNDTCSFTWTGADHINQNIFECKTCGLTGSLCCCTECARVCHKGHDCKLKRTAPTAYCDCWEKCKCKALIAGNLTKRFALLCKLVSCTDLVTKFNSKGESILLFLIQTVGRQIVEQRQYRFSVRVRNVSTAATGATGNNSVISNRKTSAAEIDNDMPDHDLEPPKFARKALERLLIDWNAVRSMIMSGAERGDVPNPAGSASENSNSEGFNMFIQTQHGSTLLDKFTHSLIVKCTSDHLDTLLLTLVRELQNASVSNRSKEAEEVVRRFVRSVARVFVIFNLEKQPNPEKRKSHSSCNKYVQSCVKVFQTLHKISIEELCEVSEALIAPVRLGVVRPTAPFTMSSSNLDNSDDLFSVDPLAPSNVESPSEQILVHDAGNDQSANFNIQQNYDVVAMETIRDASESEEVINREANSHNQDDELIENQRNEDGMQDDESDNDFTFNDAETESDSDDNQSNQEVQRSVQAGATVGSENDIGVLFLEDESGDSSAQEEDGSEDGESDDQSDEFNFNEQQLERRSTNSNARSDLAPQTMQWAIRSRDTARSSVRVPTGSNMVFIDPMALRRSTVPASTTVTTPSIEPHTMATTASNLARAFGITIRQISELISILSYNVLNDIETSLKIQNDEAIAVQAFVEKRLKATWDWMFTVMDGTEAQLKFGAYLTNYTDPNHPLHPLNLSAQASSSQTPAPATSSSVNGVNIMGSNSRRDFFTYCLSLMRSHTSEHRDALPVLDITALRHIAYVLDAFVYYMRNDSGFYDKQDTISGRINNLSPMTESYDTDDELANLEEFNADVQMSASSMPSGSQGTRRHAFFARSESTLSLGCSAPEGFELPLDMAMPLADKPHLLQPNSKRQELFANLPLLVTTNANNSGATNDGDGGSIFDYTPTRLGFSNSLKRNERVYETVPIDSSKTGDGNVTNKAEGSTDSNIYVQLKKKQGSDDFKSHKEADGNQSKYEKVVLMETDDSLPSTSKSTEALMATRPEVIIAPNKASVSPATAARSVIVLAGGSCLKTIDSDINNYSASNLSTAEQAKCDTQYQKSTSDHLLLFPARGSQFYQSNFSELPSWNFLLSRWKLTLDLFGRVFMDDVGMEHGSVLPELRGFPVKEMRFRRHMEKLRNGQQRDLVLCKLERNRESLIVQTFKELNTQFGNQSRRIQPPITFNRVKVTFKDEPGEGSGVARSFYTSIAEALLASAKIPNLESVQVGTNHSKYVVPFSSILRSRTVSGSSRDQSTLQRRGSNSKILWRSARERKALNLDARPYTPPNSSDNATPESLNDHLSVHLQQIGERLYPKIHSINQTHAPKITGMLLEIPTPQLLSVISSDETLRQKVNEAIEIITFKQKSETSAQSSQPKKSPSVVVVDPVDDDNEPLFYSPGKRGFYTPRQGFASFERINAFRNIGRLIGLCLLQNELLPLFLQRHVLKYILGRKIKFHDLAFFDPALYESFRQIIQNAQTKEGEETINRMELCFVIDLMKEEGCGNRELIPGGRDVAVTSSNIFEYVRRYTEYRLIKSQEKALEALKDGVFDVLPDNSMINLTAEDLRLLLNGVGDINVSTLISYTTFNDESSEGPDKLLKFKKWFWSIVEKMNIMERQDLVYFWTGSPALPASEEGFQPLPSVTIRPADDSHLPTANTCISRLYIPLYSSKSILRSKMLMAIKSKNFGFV
V5-tagged Hyd-CS (Hyd-CS-V5) (P51592, form named): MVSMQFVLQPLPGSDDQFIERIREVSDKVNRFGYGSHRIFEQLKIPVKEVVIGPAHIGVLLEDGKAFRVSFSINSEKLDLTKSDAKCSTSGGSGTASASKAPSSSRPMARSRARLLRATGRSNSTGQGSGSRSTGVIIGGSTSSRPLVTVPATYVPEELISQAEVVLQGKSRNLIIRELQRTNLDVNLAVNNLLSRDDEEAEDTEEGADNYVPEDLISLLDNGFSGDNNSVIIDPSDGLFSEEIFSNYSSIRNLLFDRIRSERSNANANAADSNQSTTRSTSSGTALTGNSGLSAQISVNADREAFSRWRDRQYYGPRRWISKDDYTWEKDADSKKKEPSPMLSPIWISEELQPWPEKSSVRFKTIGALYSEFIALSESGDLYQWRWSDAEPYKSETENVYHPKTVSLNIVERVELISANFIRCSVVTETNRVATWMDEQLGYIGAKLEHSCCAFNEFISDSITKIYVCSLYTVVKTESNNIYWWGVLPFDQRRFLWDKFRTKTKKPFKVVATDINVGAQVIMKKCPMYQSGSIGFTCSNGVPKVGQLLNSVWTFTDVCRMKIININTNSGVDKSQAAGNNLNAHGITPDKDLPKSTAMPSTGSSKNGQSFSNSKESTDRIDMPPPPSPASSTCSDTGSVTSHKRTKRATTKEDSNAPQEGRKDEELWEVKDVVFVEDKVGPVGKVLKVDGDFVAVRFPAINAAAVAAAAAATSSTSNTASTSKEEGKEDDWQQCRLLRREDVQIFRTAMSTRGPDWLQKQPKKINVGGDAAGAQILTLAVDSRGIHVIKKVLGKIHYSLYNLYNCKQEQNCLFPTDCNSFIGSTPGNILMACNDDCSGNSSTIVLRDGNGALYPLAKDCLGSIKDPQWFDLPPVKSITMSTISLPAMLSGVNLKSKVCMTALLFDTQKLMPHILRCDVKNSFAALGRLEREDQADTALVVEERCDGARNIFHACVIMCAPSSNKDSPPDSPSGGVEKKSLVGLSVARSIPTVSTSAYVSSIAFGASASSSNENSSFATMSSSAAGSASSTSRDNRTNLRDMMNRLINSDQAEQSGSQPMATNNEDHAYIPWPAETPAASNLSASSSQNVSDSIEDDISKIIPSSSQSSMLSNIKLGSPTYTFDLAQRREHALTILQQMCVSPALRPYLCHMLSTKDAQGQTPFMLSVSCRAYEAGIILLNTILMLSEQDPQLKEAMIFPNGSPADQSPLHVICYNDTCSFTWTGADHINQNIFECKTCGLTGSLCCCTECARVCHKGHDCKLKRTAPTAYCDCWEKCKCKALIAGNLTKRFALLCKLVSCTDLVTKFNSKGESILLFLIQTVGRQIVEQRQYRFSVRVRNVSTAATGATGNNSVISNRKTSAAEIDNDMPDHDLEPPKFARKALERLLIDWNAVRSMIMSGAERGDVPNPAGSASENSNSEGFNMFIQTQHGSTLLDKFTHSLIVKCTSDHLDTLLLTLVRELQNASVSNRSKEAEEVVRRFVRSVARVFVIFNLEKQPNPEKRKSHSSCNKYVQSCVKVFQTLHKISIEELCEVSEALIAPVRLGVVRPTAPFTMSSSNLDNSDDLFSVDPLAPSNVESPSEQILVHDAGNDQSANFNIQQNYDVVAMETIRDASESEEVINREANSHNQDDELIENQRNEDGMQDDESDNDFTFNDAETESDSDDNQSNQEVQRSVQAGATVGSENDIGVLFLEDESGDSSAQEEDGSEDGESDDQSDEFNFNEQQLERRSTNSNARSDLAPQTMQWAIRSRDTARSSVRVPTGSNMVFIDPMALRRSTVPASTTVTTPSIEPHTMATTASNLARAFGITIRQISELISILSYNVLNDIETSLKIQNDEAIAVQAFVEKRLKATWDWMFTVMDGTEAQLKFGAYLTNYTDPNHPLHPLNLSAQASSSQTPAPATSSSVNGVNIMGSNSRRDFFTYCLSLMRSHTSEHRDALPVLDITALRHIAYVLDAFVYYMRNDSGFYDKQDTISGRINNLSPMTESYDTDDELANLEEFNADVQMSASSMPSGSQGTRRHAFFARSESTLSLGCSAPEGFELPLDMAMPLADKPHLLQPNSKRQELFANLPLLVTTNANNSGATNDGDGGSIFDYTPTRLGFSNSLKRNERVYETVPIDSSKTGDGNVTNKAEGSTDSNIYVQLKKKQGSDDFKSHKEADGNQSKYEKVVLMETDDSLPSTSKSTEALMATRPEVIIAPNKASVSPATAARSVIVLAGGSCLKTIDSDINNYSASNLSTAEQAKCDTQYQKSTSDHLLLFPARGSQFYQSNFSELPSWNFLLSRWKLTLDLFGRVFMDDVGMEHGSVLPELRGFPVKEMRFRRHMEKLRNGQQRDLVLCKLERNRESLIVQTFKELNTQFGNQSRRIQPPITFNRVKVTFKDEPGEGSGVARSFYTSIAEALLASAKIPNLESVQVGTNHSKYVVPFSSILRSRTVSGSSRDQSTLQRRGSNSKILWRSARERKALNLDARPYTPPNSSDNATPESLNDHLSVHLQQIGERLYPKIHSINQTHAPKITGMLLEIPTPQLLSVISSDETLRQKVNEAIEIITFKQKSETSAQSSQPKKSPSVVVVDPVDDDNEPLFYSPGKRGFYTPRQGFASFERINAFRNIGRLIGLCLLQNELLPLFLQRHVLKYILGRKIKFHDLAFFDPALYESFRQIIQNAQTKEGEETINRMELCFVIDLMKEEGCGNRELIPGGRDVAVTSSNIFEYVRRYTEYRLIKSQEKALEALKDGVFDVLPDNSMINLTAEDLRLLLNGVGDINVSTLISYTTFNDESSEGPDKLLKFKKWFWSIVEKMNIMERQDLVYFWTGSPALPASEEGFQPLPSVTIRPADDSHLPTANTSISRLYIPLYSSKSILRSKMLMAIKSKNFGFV

[2] = target: T2, Akirin (Drosophila melanogaster) (UniProt Q9VS59); test: co-IP; S2 cells transiently transfected with Akirin, Gal4, Hyd-V5 and/or Hyd-CS-V5 plasmids; lysate (Pierce IP Lysis Buffer) immunoprecipitated with anti-Akirin overnight at 4°C; Western blot with anti-V5 or anti-Akirin
T2 sequence: T1 sequence

[3] = target: T2, Akirin (Drosophila melanogaster); test: co-IP; interaction assay between Diap2 and Akirin, a control to the Hyd-Akirin co-immunoprecipitation; details only in S3 Fig

Bap60-HA (from UniProt Q9VYG2 1-515)
binding [1]: binds

V5-tagged Hyd-CS (Hyd-CS-V5) (from UniProt P51592 1-2885) (enzyme)
binding [2]: no binding

V5-tagged Hyperplastic discs (Hyd-V5) (from UniProt P51592 1-2885) (enzyme)
binding [2]: binds

B1: Death-associated inhibitor of apoptosis 2 (Diap2) (enzyme, UniProt Q24307 1-498)
chain: MTELGMELESVRLATFGEWPLNAPVSAEDLVANGFFATGNWLEAECHFCHVRIDRWEYGDQVAERHRRSSPICSMVLAPNHCGNVPRSQESDNEGNSVVDSPESCSCPDLLLEANRLVTFKDWPNPNITPQALAKAGFYYLNRLDHVKCVWCNGVIAKWEKNDNAFEEHKRFFPQCPRVQMGPLIEFATGKNLDELGIQPTTLPLRPKYACVDARLRTFTDWPISNIQPASALAQAGLYYQKIGDQVRCFHCNIGLRSWQKEDEPWFEHAKWSPKCQFVLLAKGPAYVSEVLATTAANASSQPATAPAPTLQADVLMDEAPAKEALALGIDGGVVRNAIQRKLLSSGCAFSTLDELLHDIFDDAGAGAALEVREPPEPSAPFIEPCQATTSKAASVPIPVADSIPAKPQAAEAVANISKITDEIQKMSVATPNGNLSLEEENRQLKDARLCKVCLDEEVGVVFLPCGHLATCNQCAPSVANCPMCRADIKGFVRTFLS
binding [3]: no binding

Source: paper PMC7205318
